According to patent US6645916B1, “2,4-diamino-1,3,5-triazines, their preparation and their use as herbicides and plant growth regulators” (Hoechst Schering AgrEvo GmbH, priority 1997, dated 2003):
Some entries share one result that the patent states for a list of compounds.

Legend:
[1] = tested on: harmful plants which are typical for rice crops, for example Cyperus monti, Eleocharis acicularis, Echinochloa crus-galli and Sagittaria pygmaea; test: Action on weeds in rice (paddy rice conditions, visual rating); format: in vivo, typical rice weeds (gramineous and broad-leaved); conditions: poured into the dammed water, different dosages, about three weeks after application, by comparison with untreated controls
[2] = tested on: harmful plants such as Stellaria media, Matricaria inodora, Sorghum halepense, Digitaria adscendens, Setaria pumila, Avena fatua, Galium aparine, Polygonum …; test: Preemergence action against weeds (greenhouse pot test, visual rating); format: in vivo, monocotyledonous or dicotyledonous weed plants; conditions: applied pre-emergence at a rate of 1.25 kg of active substance per hectare, 3 to 4 weeks, by comparison with untreated controls
[3] = tested on: harmful plants such as Sorghum halepense, Digitaria adscendens, Setaria pumila, Avena fatua, Galium aparine, Polygonum persicaria, Veronica persica, Amaranthus …; test: Post-emergence action against weeds (greenhouse pot test, visual rating); format: in vivo, monocotyledonous and dicotyledonous weeds; conditions: applied post-emergence at the three-leaf stage at a rate of 1.25 kg or less of active substance per hectare, about 3 to 4 weeks, by comparison with untreated controls

| SMILES | herbicidal activity (visual rating of the damage to the plants) [1] | herbicidal activity (visual rating of damage to the plants or negative effect on emergence) [2] | herbicidal activity (visual rating) [3] |
| --- | --- | --- | --- |
| Cc1cc(C)cc(OCC(Nc2nc(N)nc(C(C)(C)F)n2)c2ccccc2)c1 (stereo not drawn) [Example 2-16] | very good herbicidal activity | herbicidal activity | herbicidal activity |
| CC(C)(F)c1nc(N)nc(NC(COc2cccc(Br)c2)c2ccccc2)n1 (stereo not drawn) [Example 2-19] | very good herbicidal activity | herbicidal activity | herbicidal activity |
| CC(C)(F)c1nc(N)nc(NC(COc2ccc(Cl)c(Cl)c2)c2ccccc2)n1 (stereo not drawn) [Example 2-24] | very good herbicidal activity | herbicidal activity | herbicidal activity |
| CC(C)(F)c1nc(N)nc(NCC(Oc2cccc(Cl)c2)c2ccccc2)n1 (stereo not drawn) [Example 2-26] | very good herbicidal activity | herbicidal activity | herbicidal activity |
| CCCC(COc1cccc(Br)c1)Nc1nc(N)nc(C(C)(C)F)n1 (stereo not drawn) [Example 2-39] | very good herbicidal activity | herbicidal activity | herbicidal activity |
| CCCC(COc1cccc(C(F)(F)F)c1)Nc1nc(N)nc(C(C)(C)F)n1 (stereo not drawn) [Example 2-42] | very good herbicidal activity | herbicidal activity | herbicidal activity |
| CC(CNc1cccc(Cl)c1)Nc1nc(NN)nc(C(C)(C)F)n1 (stereo not drawn) [Example 2-45] | very good herbicidal activity | herbicidal activity | herbicidal activity |
| CC(COc1cccc(C#Cc2ccccc2)c1)Nc1nc(N)nc(C(C)C)n1 (stereo not drawn) [Example 4] | very good herbicidal activity | herbicidal activity | herbicidal activity |
| COc1cccc(OCC(C)Nc2nc(N)nc(C(C)C)n2)c1 (stereo not drawn) [Example 5] | very good herbicidal activity | herbicidal activity | herbicidal activity |
| CC(COc1cccc(Oc2ccccc2)c1)Nc1nc(N)nc(C(C)C)n1 (stereo not drawn) [Example 7] | very good herbicidal activity | herbicidal activity | herbicidal activity |
| CC(COc1cccc(OC(F)(F)F)c1)Nc1nc(N)nc(C(C)C)n1 (stereo not drawn) [Example 11] | very good herbicidal activity | herbicidal activity | herbicidal activity |
| CC(COc1cccc(OC(F)(F)C(F)F)c1)Nc1nc(N)nc(C(C)C)n1 (stereo not drawn) [Example 12] | very good herbicidal activity | herbicidal activity | herbicidal activity |
| COc1cc(F)cc(OCC(C)Nc2nc(N)nc(C(C)C)n2)c1 (stereo not drawn) [Example 19] | very good herbicidal activity | herbicidal activity | herbicidal activity |
| COc1cc(Cl)cc(OCC(C)Nc2nc(N)nc(C(C)C)n2)c1 (stereo not drawn) [Example 24] | very good herbicidal activity | herbicidal activity | herbicidal activity |
| CCC(COc1ccccc1)Nc1nc(N)nc(C(C)C)n1 (stereo not drawn) [Example 26] | very good herbicidal activity | herbicidal activity | herbicidal activity |
| CCC(COc1cccc(C)c1)Nc1nc(N)nc(C(C)C)n1 (stereo not drawn) [Example 27] | very good herbicidal activity | herbicidal activity | herbicidal activity |
| C#Cc1cccc(OCC(CC)Nc2nc(N)nc(C(C)C)n2)c1 (stereo not drawn) [Example 39] | very good herbicidal activity | herbicidal activity | herbicidal activity |
| CCC(COc1cccc(OC)c1)Nc1nc(N)nc(C(C)C)n1 (stereo not drawn) [Example 42] | very good herbicidal activity | herbicidal activity | herbicidal activity |
| CCC(COc1cccc(Oc2ccccc2)c1)Nc1nc(N)nc(C(C)C)n1 (stereo not drawn) [Example 44] | very good herbicidal activity | herbicidal activity | herbicidal activity |
| CCC(COc1cc(OC)cc(OC)c1)Nc1nc(N)nc(C(C)C)n1 (stereo not drawn) [Example 45] | very good herbicidal activity | herbicidal activity | herbicidal activity |
| CCC(COc1cccc(F)c1)Nc1nc(N)nc(C(C)C)n1 (stereo not drawn) [Example 51] | very good herbicidal activity | herbicidal activity | herbicidal activity |
| CCC(COc1cccc(Cl)c1)Nc1nc(N)nc(C(C)C)n1 (stereo not drawn) [Example 52] | very good herbicidal activity | herbicidal activity | herbicidal activity |
| CCC(COc1cccc(Br)c1)Nc1nc(N)nc(C(C)C)n1 (stereo not drawn) [Example 53] | very good herbicidal activity | herbicidal activity | herbicidal activity |
| CCC(COc1cccc(I)c1)Nc1nc(N)nc(C(C)C)n1 (stereo not drawn) [Example 54] | very good herbicidal activity | herbicidal activity | herbicidal activity |
| CCC(COc1cc(F)cc(F)c1)Nc1nc(N)nc(C(C)C)n1 (stereo not drawn) [Example 55] | very good herbicidal activity | herbicidal activity | herbicidal activity |
